From PubChem BioAssay record AID1159506 (NCATS, 2015).

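Luminescence from an EWS-FLI1 target-promoter (NR0B1) reporter, set against a CMV-promoter reporter, two days after silencing single genes in TC32 Ewing sarcoma cells. Each siRNA was applied at 20 nM. A z-score of the log NR0B1-over-CMV signal, less the median of siRNAs with the same seed; more negative means a stronger specific loss of the NR0B1 reporter.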

The strongest results of the screen are mostly left out here. Sequences are the guide (antisense) strand, without overhang.

| # | Sequence | target gene | seed-corrected z-score |
|---|---|---|---|
| 1 | `UUCCGACUCAAUAUCAUCC` | C2CD2L | 0.7278 |
| 2 | `UUUUCAGAUCCGCAUAUCC` | CCDC126 | -0.2571 |
| 3 | `UGGUCAAAGAGAAUGGAGG` | RPS6KA4 | -0.6663 |
| 4 | `UAUGCAACAUAUCUCUUCU` | TPTE | 0.5118 |
| 5 | `UUUAUCUACUGGAACAACC` | C4orf27 | 0.08033 |
| 6 | `ACUUGUGCUAGUGCUAGGC` | RBM5 | 0.06445 |
| 7 | `UUCCGGUAUAAAGAGGAUG` | GLYATL2 | 0.5649 |
| 8 | `AAGGUUCCUACUGACAUCG` | PSMC1 | -0.5902 |
| 9 | `UCCGUUUAAACAGACUGUC` | SDC2 | 0.2546 |
| 10 | `UCAUUGCGAACAACAGGGC` | ENAM | 0.1401 |
| 11 | `AAUCAUAUAUUGUAAACUG` | OVOS | -0.6895 |
| 12 | `UUUAUACUUACGUAGAAUG` | MAGEB1 | 0.1599 |
| 13 | `UUCUUUGUAGGUAGCCUCC` | RSPH3 | 0.9329 |
| 14 | `UUUUGUGCCGUAACCUCCU` | STK11 | -0.5619 |
| 15 | `AAAAGUAGUACCUCGGUUC` | CFAP46 | -1.057 |
| 16 | `UUCUUAUUAGCUUCAGCCU` | GAP43 | 0.8395 |
| 17 | `AAACCGUCCAAAUCCUUGC` | KAT6B | 0.2731 |
| 18 | `UCUCUCAUAACCAACAUCG` | ACTR3 | -0.1639 |
| 19 | `UCUAAGUCCAUGUCCAUGU` | FIBP | 0.8253 |
| 20 | `UUUACUUUAACUUCAACUC` | MORF4 | -0.686 |
| 21 | `UACAGUUCCACAUAAGUCU` | HOXA4 | 0.9825 |
| 22 | `UUAUCCAAAGUUCAUAACC` | QRFPR | -0.4653 |
| 23 | `UGCUCUAAGAAGUUGUUGC` | SMC3 | 0.6155 |
| 24 | `UCUAGAUCAGUCUUGAUAG` | CDC73 | -1.132 |
| 25 | `UUCGGUACCAGUUUAGAGG` | EPHX2 | -0.4292 |
| 26 | `UCAGUUUUGGGCACUGUGG` | ERG | 1.091 |
| 27 | `ACUUCUAUCAAUGCAUUGC` | SH3GL3 | 0.1245 |
| 28 | `UUACUAUCUCGAAUGGUCG` | CENPBD1 | -0.4133 |
| 29 | `UUACUUGACUCUUGAAAGG` | REXO4 | -0.2094 |
| 30 | `UGAUGUUUAAGGCUUGGAC` | IDS | -1.17 |
| 31 | `AAAGUAAGAGCCUAUCUGC` | ITGA11 | 0.419 |
| 32 | `UAGAAUGUACGGUAACAGC` | CRIPAK | 0.5457 |
| 33 | `UAACCCUUCGGUAAGAGUC` | MATR3 | 0.08136 |
| 34 | `UACGUUUCCUUUACGUUUG` | CENPU | 1.399 |
| 35 | `UACGGUACCUGUAAGUAGC` | PDCD11 | 0.5399 |
| 36 | `UCUUCGACUGCUCAGACUG` | CRLF3 | 0.417 |
| 37 | `UAGGAGUAUGCAAAUGUCC` | PPP1R14D | -0.07148 |
| 38 | `AUCAGUCCAAAAACGAGGC` | CHST15 | 0.5435 |
| 39 | `UGCCUUUUAAAGUGAUCUG` | LINC01501 | -0.4129 |
| 40 | `AAUGAUACAAUGAUAAUGG` | TRMT1L | -0.5803 |
| 41 | `UAGAAGGCGACAAUGGCUC` | IER5L | -0.8235 |
| 42 | `UCUCUGACCACCAAAUUGC` | PCDHAC1 | -0.1236 |
| 43 | `UUAGCUUGAACAGGGACCC` | MINA | 1.165 |
| 44 | `UUAUAGUUAGGAAAAGUUG` | LINC00886 | -0.1538 |
| 45 | `AAUCUGAUCACGGUUACUC` | SLC35A5 | 0.3464 |
| 46 | `UUCAUAUAAAUUACCCUGC` | NT5DC3 | 0.3813 |
| 47 | `UAGGAAGUCUUUACUCUGG` | SNCAIP | 0.06304 |
| 48 | `AAACGUAUCAUCCAUAUCC` | SRGAP1 | -0.3226 |
| 49 | `UUGCAUGACUGGUGGGAGG` | IFNL2 | -0.5614 |
| 50 | `AAAAUUGACAGGGACCUCU` | HMGB3 | 1.316 |
| 51 | `ACAGAUGCGGUUCAUGGCC` | GUK1 | 0.9454 |
| 52 | `UGAGGAUUCACGAUGACUG` | LOC650293 | 0.06586 |
| 53 | `UCGUGUAAACUCUAGUCCC` | FLJ40039 | -0.1298 |
| 54 | `AAGUUGAGAAUGAAGGUGG` | NFKB1 | -0.5949 |
| 55 | `UUUUUCAAACUACACUUGC` | SCUBE2 | 1.151 |
| 56 | `UUAGCAGCGAUGACGACAC` | TMEM184A | -0.3114 |
| 57 | `UCAUGAACAGCUCAUGUAC` | FBXO43 | 0.01474 |
| 58 | `AAACCAUUGACUUCGGUCC` | SMC2 | 0.8816 |
| 59 | `AAGUAGUAAAUAUAGGUGC` | TTC3 | -0.5377 |
| 60 | `AAUCAAUCCACGCUGACAG` | OGFRP1 | -0.1841 |
| 61 | `UUUCAGUACAUGACUGAGC` | ANTXR2 | 0.2691 |
| 62 | `UGCGAUUUUCGUAAGGACC` | ATP6V1B2 | -0.2895 |
| 63 | `UCUUCCACAAUCUUAACAG` | AKAP14 | -0.02054 |
| 64 | `UUUGCGGUUCGGUAGAAGG` | ANKRD60 | -1.693 |
| 65 | `UUUGAGAUAGUCGAAGUCA` | AKT2 | 0.3595 |
| 66 | `UUGCAUCUCACCUCAUGGG` | PRF1 | -0.06433 |
| 67 | `AGACCUUUUUCUGUGAUCC` | SGCD | -0.1752 |
| 68 | `ACCGCUUCAUCUGAGACCU` | PPM1B | -0.3612 |
| 69 | `UAUAUAAUAAAACCCAUGC` | CCL11 | -0.1637 |
| 70 | `UAUUAGGUUCUAUAACUCC` | BLZF1 | 1.369 |
| 71 | `UUUCUUAUUCAUGGUAACC` | OR2G6 | -0.4106 |
| 72 | `UAUAGAUUCUGAAAUCUGC` | IL4R | -0.4155 |
| 73 | `ACACCUUUCCCUGUCAUAG` | CHCHD7 | 0.5561 |
| 74 | `UCUGUAGCAGGCGAAACUC` | CELSR3 | 0.7265 |
| 75 | `UGUAUUUGCAGAUCUGGGU` | KLK10 | -0.004415 |
| 76 | `UCUUAAGUAACUUGUCUGC` | CCDC80 | -0.5067 |
| 77 | `UUUCUGUGGCGUUCGAGGC` | PALM2-AKAP2 | -0.4308 |
| 78 | `AUAGUUAUACAGGCGCAGG` | AURKC | -0.7841 |
| 79 | `AUGCUUGCAAUUUAUUUGG` | MIR99AHG | 1.128 |
| 80 | `UUUUGGAGUCCGAAAUGGG` | IRX3 | -0.404 |